This is an account of results in patent US6339062B1 (Inkine Pharmaceutical Company, Inc., priority 1998, dated 2002).

The series can be described thus: general procedure: Boc solid-phase peptide synthesis; Boc-Xaa-OCH2-PAM resin (0.2-0.8 mmole/g) or p-mBHA resin (0.2-0.7 mmole/g); dipropylcarbodiimide. The following applies: whole synthesis, analytical reverse-phase HPLC, scale of the general procedure 0.1 mmole, TFA salt.

Where no end group is shown, it is not given here.

For “WSPCSVTCG-NH2 (cysteine pairing not given here)”, the “final HPLC purity” value was “a purity of 90%”. With “WSPCSVTCG (cysteine pairing not given here)” the entry was “a purity of 90%”.
